# Assay results published in PubChem BioAssay AID651768 (National Center for Advancing Translational Sciences (NCATS), 2012).
# Amino acid sequences for entries named in this document (tags omitted).
# UniProt Q14191, whole entry: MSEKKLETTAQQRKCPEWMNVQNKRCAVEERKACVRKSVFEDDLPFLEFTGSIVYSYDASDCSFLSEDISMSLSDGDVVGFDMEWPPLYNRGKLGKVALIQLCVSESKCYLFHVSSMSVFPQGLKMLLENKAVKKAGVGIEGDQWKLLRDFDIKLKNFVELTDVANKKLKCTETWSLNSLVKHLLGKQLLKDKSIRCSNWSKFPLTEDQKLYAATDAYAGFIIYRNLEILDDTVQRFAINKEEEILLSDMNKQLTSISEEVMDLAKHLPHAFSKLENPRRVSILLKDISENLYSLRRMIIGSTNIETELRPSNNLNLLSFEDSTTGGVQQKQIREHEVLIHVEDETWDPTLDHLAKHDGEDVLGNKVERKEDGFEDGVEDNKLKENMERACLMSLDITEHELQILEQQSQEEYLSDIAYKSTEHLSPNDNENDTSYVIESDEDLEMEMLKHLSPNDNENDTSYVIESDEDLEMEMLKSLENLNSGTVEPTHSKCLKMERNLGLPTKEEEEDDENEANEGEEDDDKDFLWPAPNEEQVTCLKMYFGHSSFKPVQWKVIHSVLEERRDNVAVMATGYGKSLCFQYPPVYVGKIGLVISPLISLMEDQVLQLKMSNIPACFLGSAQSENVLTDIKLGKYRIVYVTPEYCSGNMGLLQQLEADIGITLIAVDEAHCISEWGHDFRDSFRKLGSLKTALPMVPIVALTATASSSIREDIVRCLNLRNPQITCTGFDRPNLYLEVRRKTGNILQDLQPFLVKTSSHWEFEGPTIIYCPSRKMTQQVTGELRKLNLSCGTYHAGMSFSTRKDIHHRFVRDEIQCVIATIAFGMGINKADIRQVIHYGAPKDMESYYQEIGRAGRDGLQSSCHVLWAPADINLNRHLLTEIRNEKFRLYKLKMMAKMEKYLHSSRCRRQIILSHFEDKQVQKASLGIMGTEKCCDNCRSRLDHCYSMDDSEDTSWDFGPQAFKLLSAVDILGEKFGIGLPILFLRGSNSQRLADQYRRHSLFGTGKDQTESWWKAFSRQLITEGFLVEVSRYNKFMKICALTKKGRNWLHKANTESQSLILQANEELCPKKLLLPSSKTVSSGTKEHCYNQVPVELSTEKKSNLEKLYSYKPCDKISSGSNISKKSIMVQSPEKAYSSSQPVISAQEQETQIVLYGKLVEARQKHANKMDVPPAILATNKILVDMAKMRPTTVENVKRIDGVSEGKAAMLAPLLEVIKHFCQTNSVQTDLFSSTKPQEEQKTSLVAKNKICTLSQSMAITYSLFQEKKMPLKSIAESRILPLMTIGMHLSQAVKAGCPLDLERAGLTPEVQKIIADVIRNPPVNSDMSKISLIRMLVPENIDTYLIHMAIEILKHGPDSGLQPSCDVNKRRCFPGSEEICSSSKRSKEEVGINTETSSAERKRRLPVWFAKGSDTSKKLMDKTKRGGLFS
# Screen size: about 360,000 compounds; about 1,700 (0.47%) were called active. Only results without a clear call are listed here; the source files them as inconclusive. Calls come from the whole dose curve; as a rule, active = well fitted inhibition curve with a large enough effect; inconclusive = small, poorly fitted or top-dose-only effect; inactive = no such curve, though single readings can be large or run the other way. Some of these compounds have results that are not shown, active ones among them.
# Biological target: Bifunctional 3'-5' exonuclease/ATP-dependent helicase WRN (Homo sapiens) (UniProt Q14191)
# Experiment: qHTS for Inhibitors of WRN Helicase; note: nearly all actives have a fitted effect of over 55% in size
# Conditions: WRN helicase unwinding, fluorescent forked duplex, kinetic; series mostly up to 114 µM
# From the text: Inhibition of DNA repair is proposed as a strategy for combating cancer. Synthetic lethality is an approach that exploits preexisting DNA repair deficiencies in certain tumors to develop inhibitors of DNA repair pathways that compensate for the tumor-associated DNA repair deficiency. […] We will employ an optimized high-throughput screening assay that utilizes a fluorescence intensity modulation scheme with a fluorophore and quencher positioned near one another within a duplex deoxyoligonucleotide that contains a single forked structure. […]
# Three muL of reagents (buffer in columns 3 and 4 as negative controls; WRN at 20 nM final concentration in columns 1 and 2 as positive controls; columns 5-48 as test reactions) will be dispensed into a 1536-well Greiner black plate via solenoid-valve based nanoliter dispensers. […] Plates will be incubated for 15 min at room temperature, and then 1 µL of substrate (100 nM forked duplex oligonucleotide and 2 mM ATP final concentrations) will be added to start reaction, and plate will be transferred into a ViewLux high-throughput CCD imager where reaction progress is measured in kinetic mode using standard red-fluorescence optics (excitation filter 525 nm, emission filter 598 nm).
# Potency is the fitted concentration of half-maximal effect.
row,Structure (SMILES),Potency
1,Cc1ccc(C(=O)NCC2(N3CCCCC3)CCCCC2)cc1,inconclusive: 89.1 µM
